Test results from PubChem BioAssay AID624297 (National Center for Advancing Translational Sciences (NCATS), 2012).
Out of some 340,000 compounds screened, about 6,200 (1.8%) were called active. The shares of active, inactive and inconclusive entries below differ from those in the screen. Calls come from the whole dose curve; as a rule, active = well fitted activation curve with a large enough effect; inconclusive = small, poorly fitted or top-dose-only effect; inactive = no such curve, though single readings can be large or run the other way. A potency beside an inconclusive call is a rough fit, not a confirmed value.

Assay: A quantitative high throughput screen for small molecules that induce DNA re-replication in SW480 colon adenocarcinoma cells. For re-replication activation: % of control where 0% means no effect. Note: nearly all actives have a fitted effect of over 55% in size.
Conditions: Hoechst DNA content imaging, 48 h; re-replication activation: at 46.1 µM (top of the series) unless noted
Procedure, shortened: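 Readout is total intensity of Hoechst-stained nuclei, excited at 405 nm and collected at 500-530 nm. Compound treatment lasted 48 hr at 37 C in 5% CO2 before staining.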
Potency is the fitted concentration of half-maximal effect.

| Structure (SMILES) | re-replication activation | Potency |
| --- | --- | --- |
| CC(NC(=O)c1ccccc1)C(=O)OCn1nnc2ccccc2c1=O (configuration not stated) | inactive: -4.8% | – |
| Cc1cc(OCC(=O)NC(Cc2ccc(Cl)cc2)C(=O)O)c2c(C)c(C)c(=O)oc2c1 (configuration not stated) | – | inconclusive: 0.0046 µM [activator, full curve, poor fit] |
| CCCSS/C(CCO)=C(/C)N(C=O)Cc1cnc(C)nc1N | – | inconclusive: 13.3 µM [activator, full curve, poor fit] |
| Cn1cc(CNC(=O)c2cc(COc3ccc4c(c3)CCCC4)on2)cn1 | inactive: 12% | – |
| O[C@@H]1[C@@H](O)C=C2CCN3Cc4cc5c(cc4[C@H]1C23)OCO5 (some centres not stated) | – | inconclusive: 0.231 µM [activator, single point] |
| CCc1nn(C(CC)C(=O)NCc2cccc(OC)c2)c(=O)c2cc3occc3n12 (configuration not stated) | inactive: 8.7% | – |
| CO/N=C/C(C#N)=C/c1cc(C(=O)c2ccccc2)cn1C | inactive: 2.92% | – |
| COc1cccc(/C=C2\SC(=S)N(CCCC(=O)N(CCO)c3ccccc3)C2=O)c1 | – | inconclusive: 18.4 µM [activator, single point] |
| CCOC(=O)c1ccc(CNC(=O)c2cc(C(C)(C)C)oc2C)o1 | inactive: -1.92% | – |
| Cn1c2ccccc2c2cc(/C=N/NC(=O)c3ccccc3F)ccc21 | – | inconclusive: 29.1 µM [activator, single point] |
| Cc1ccc(SC[C@H](C)CN2CC[C@H](C)CCC2=O)cc1 | – | inconclusive: 0.116 µM [activator, full curve, poor fit] |
| COC(=O)c1ccc(Oc2nc(Nc3ccc(C)c(C)c3)nc(N(C)C)n2)cc1 | – | inconclusive: 16.4 µM [activator, partial curve, poor fit] |
| c1ccc(CN2CCN(c3nc(N4CCOCC4)c4ccccc4n3)CC2)cc1 | – | inconclusive: 29.1 µM [activator, single point] |
| CC(=O)Nc1ccc(N/C=C/C(=O)c2ccco2)cc1 | inactive: -4.03% | – |
| O=C1C=C(NCc2ccc(Cl)cc2)CCC1 | inactive: -31.4% | – |
| CC(C)(C)n1nc2c(c1NC(=O)c1ccc(Br)cc1)CS(=O)C2 (configuration not stated) | inactive: -16.4% | – |
| COCCn1c(CN2CCN(c3cccc(Cl)c3)CC2)nc2c1c(=O)n(C)c(=O)n2C | inactive: -14.5% | – |
| CCOc1ccc(Cl)cc1CNc1nnnn1C | – | inconclusive: 1.84 µM [activator, partial curve, poor fit] |
| Cn1c(NCC(O)c2ccccc2)nc2c1c(=O)n(Cc1ccc(Cl)cc1)c(=O)n2C (configuration not stated) | inactive: -1.54% | – |
| Cc1ccc(Sc2ncnc3onc(C)c23)cc1 | – | inconclusive: 16.4 µM [activator, single point] |
| Cc1nn(C)c(C)c1NS(=O)(=O)c1cccc(Br)c1 | inactive: -5.65% | – |
| CCc1nnc(NC(=O)C2CCC(CNc3c(N4CCCCC4)c(=O)c3=O)CC2)s1 (configuration not stated) | – | inconclusive: 2.59 µM [activator, partial curve, poor fit] |
| CC(C)Sc1nc(N)nc2c1ncn2C1OC(CO)C(O)C1O (configuration not stated) | inactive: -2.18% | – |

| Structure (SMILES) | re-replication activation | Potency |
| --- | --- | --- |
| COc1ccccc1CCNC(=O)c1cccc(S(=O)(=O)N2CCc3ccccc3C2)c1 | – | inconclusive: 18.4 µM [activator, partial curve, poor fit] |
| O=C(O)c1ccccc1C(=O)NC1CCN(c2nccc(C(F)(F)F)n2)CC1 | inactive: -1.52% | – |
| CC(C)(C)NC(=O)CN1CCC(O)(c2ccccc2)CC1 | inactive: -2.17% | – |
| CC1(C)CC(=O)C(C=Nc2ccc(N)cc2)=C(O)C1 | – | inconclusive: 4.61 µM [activator, partial curve, poor fit] |
| O=C(CCN1CCN(c2ccccc2)CC1)c1ccc(Cl)cc1 | – | inconclusive: 29.1 µM [activator, single point] |
| C=CCN1C(=O)/C(=C\c2ccc(OC(=O)c3ccco3)c(OC)c2)SC1=S | inactive: -5.41% | – |
| CCCCCCCCCCCCCCCCOP(=O)([O-])OCC[N+](C)(C)C | – | inconclusive: 21.1 µM [activator, partial curve, poor fit] |
| CCN1/C(=C(\O)c2ccccc2)C(=O)c2ccccc2S1(=O)=O | – | inconclusive: 23.1 µM [activator, single point] |
| COc1ccc2ccccc2c1/C=N/NC(=S)NCCN1CCOCC1 | – | inconclusive: 14.6 µM [activator, partial curve, poor fit] |
| CC(C)(O)c1[nH]c2ccc(C(F)(F)F)cc2c1C(C)(C)O | – | inconclusive: 0.0046 µM [activator, full curve, poor fit] |
| O=C(NC(=S)Nc1ccc(N2CCOCC2)cc1)c1ccco1 | – | inconclusive: 23.1 µM [activator, partial curve, poor fit] |
| COc1ccccc1-c1c(C#N)c(N)nc2c1CCC2 | – | inconclusive: 29.1 µM [activator, single point] |
| CCN1CCN(C(c2ccc(F)cc2)c2nnnn2Cc2cccs2)CC1 (configuration not stated) | – | inconclusive: 1.16 µM [activator, full curve, poor fit] |
| O=C(Nc1cccc(S(=O)(=O)NCc2ccco2)c1)c1cc(-c2ccc(F)cc2)nc2ccccc12 | – | inconclusive: 29.1 µM [activator, single point] |
| O=C(c1cc(-c2ccccc2O)on1)N1CCc2ccccc2C1 | inactive: -2.8% | – |
| Cc1ccc(NC(=O)c2ccccc2[N+](=O)[O-])nc1 | – | inconclusive: 23.1 µM [activator, single point] |
| COc1cc(CNc2ccc3[nH]c(=O)[nH]c3c2)cc(Cl)c1OCC(=O)NC(C)(C)C | – | inconclusive: 5.8 µM [activator, full curve, poor fit] |
| O=C(C1CCN(Cc2ccc(F)cc2)CC1)N1CCN(C/C=C/c2ccccc2)CC1 | – | inconclusive: 29.1 µM [activator, single point] |
| O=C(N/N=C/c1cccc(Br)c1)c1ccc(N2CCCC2=O)cc1 | – | inconclusive: 18.4 µM [activator, single point] |
| CCC(C(=O)NCc1ccco1)N(C(=O)CNS(=O)(=O)c1ccccc1)c1ccc(OC)cc1 (configuration not stated) | inactive: 2.63% | – |
| N#C/C(=C\c1c(N2CCOCC2)nc2ccccn2c1=O)C(=O)NC1CCS(=O)(=O)C1 (configuration not stated) | – | inconclusive: 2.59 µM [activator, full curve, poor fit] |
| Cc1ccc(S(=O)(=O)Cc2ccccc2Cl)cc1 | – | inconclusive: 29.1 µM [activator, single point] |
| CCOc1ccccc1NC(=O)COC(=O)C1CCC1 | – | inconclusive: 11.6 µM [activator, partial curve, poor fit] |

| Structure (SMILES) | re-replication activation | Potency |
| --- | --- | --- |
| CCn1c(COc2ccccc2C)nnc1SCC(=O)N1CCC(C)CC1 | – | inconclusive: 29.1 µM [activator, partial curve, poor fit] |
| Cc1ccc(-c2nc(CS(=O)CC(=O)NC(C)CCc3ccccc3)c(C)o2)cc1 (configuration not stated) | – | inconclusive: 18.4 µM [activator, single point] |
| CCOc1ccc(N(CC(=O)Nc2cc(OC)cc(OC)c2)S(=O)(=O)c2c(C)[nH]c(=O)[nH]c2=O)cc1 | inactive: 5.72% | – |
| Cc1ccc(-c2cnc(NC(=O)c3cccc(Br)c3)s2)c(C)c1 | – | inconclusive: 29.1 µM [activator, single point] |
| O=C(NC(Nc1ncc(S(=O)(=O)c2ccc([N+](=O)[O-])cc2)s1)(C(F)(F)F)C(F)(F)F)c1ccc(Cl)cc1 | – | inconclusive: 12.6 µM [activator, single point] |
| CCOC(=O)COc1cccc2c(=O)n(CC(=O)NCc3ccc(F)cc3)ccc12 | – | inconclusive: 0.731 µM [activator, full curve, poor fit] |
| C/C(N)=C(/C#N)C(=O)CSc1nc2ccccc2c(=O)n1Cc1ccc(C)cc1 | – | inconclusive: 18.4 µM [activator, single point] |
| CC(C)C[C@H]1CNC(=S)N1CC1CCCN1C[C@H](CC(C)C)N1C[C@H](Cc2ccc(O)cc2)N(CC2CCCCC2)C1=S (some centres not stated) | – | inconclusive: 20.6 µM [activator, single point] |
| Oc1ccccc1-c1nnc(SCCN2CCOCC2)n1Cc1ccccc1 | – | inconclusive: 20.6 µM [activator, single point] |
| COc1ccc(Cc2nnc(NC(=O)c3cc(OC)c(OC)c(OC)c3)s2)cc1 | – | inconclusive: 29.1 µM [activator, single point] |
| Cc1ccccc1NC(=O)COC(=O)c1c[nH]c(=O)[nH]c1=O | – | inconclusive: 20.6 µM [activator, single point] |
| CN1CCN(c2ccc(NC(=O)CSc3nnnn3-c3ccccc3Cl)cc2)CC1 | – | active: 20.6 µM |
| CCOC(=O)c1c(-c2ccccc2)csc1NC(=O)/C(C#N)=C\c1ccc(O)c(OC)c1 | – | inconclusive: 23.1 µM [activator, single point] |
| COc1ccc(-c2sc3cc(OC)c(OC)cc3c2-c2ccc(O)cc2)cc1 | – | active: 20.6 µM |
| c1ccc(-n2ncc3c(NCc4ccco4)ncnc32)cc1 | – | active: 20.6 µM |
| CCCCn1c(N)c(N(CCOC)C(=O)c2ccc(-n3c(C)ccc3C)cc2)c(=O)[nH]c1=O | – | inconclusive: 6.51 µM [activator, partial curve, poor fit] |
| Cc1ccc(OCc2ccc(C(=O)Nc3nc4ccccc4n3Cc3ccccc3)o2)c([N+](=O)[O-])c1 | – | inconclusive: 29.1 µM [activator, single point] |
| Fc1ccc2nc(Nc3nc4c(s3)CCCC4)sc2c1 | – | inconclusive: 32.6 µM [activator, partial curve, poor fit] |
| CCn1c(CSc2ncccn2)nnc1SCC(=O)N1CCCCC1 | inactive: 1.6% | – |
| COc1cccc(C(=O)/C=C/c2ccc(SC)cc2)c1 | – | inconclusive: 22.4 µM [activator, single point] |
| COCCN1Cc2cc3cc(C)ccc3nc2SC1=Nc1ccc(OC)cc1 | – | inconclusive: 32.6 µM [activator, partial curve, poor fit] |

Full records, looked up by structure. Order of values: re-replication activation | Potency
COc1cc(CNc2ccc3[nH]c(=O)[nH]c3c2)cc(Cl)c1OCC(=O)NC(C)(C)C as listed: – | inconclusive: 5.8 µM [activator, full curve, poor fit]
Cc1ccc(SC[C@H](C)CN2CC[C@H](C)CCC2=O)cc1 as listed: – | inconclusive: 0.116 µM [activator, full curve, poor fit]

Shown with bars between the fields: 3 of the compounds above
Structure (SMILES) | re-replication activation | Potency
C/C(N)=C(/C#N)C(=O)CSc1nc2ccccc2c(=O)n1Cc1ccc(C)cc1 | – | inconclusive: 18.4 µM [activator, single point]
COc1ccc(Cc2nnc(NC(=O)c3cc(OC)c(OC)c(OC)c3)s2)cc1 | – | inconclusive: 29.1 µM [activator, single point]
CCOC(=O)c1c(-c2ccccc2)csc1NC(=O)/C(C#N)=C\c1ccc(O)c(OC)c1 | – | inconclusive: 23.1 µM [activator, single point]
